Laboratory results reported in US20090298866A1, “Indole Compounds” (priority 2006, published 2009).
Where a name gives a salt, the structure may show the parent alone. Some entries share one result that the patent states for a list of compounds.

target: T1, human EP1 receptor (Homo sapiens, UniProt P34995); assay: human EP1 calcium mobilisation assay; type: cell-based; conditions: human EP1, CHO-K1 cells, PGE2-induced calcium mobilisation; averages of a number of experiments
T1 construct: expressed in transfected cells; host or cells: CHO-K1
T1 sequence (P34995 1-402): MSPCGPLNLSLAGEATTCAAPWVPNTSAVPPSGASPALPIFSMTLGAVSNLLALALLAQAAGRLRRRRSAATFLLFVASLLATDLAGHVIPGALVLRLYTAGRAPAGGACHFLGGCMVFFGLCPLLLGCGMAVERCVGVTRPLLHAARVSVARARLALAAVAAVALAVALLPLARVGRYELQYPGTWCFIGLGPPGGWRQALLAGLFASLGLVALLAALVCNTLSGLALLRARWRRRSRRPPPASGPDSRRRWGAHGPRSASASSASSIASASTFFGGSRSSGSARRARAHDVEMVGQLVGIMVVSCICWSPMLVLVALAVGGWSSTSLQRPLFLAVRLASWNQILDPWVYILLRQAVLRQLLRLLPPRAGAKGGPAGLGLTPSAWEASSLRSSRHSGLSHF
Procedure: Briefly, the antagonist properties of compounds are assessed by their ability to inhibit the mobilisation of intracellular calcium ([Ca^2+]i) in response to activation of EP1 or EP3 receptors by the natural agonist hormone prostaglandin E2 (PGE2). Increasing concentrations of antagonist reduce the amount of calcium that a given concentration of PGE2 can mobilise. The net effect is to displace the PGE2 concentration-effect curve to higher concentrations of PGE2. The amount of calcium produced is assessed using a calcium-sensitive fluorescent dye such as Fluo-4, AM and a suitable instrument such as a Fluorimetric Imaging Plate Reader (FLIPR). Increasing amounts of [Ca^2+]i produced by receptor activation increase the amount of fluorescence produced by the dye and give rise to an increasing signal. The signal may be detected using the FLIPR instrument and the data generated may be analysed with suitable curve-fitting software.
The human EP1 or EP3 calcium mobilisation assay (hereafter referred to as ‘the calcium assay’) utilises Chinese hamster ovary-K1 (CHO-K1) cells into which a stable (pCIN; BioTechniques 20 (1996): 102-110) vector containing either EP1 or EP3 cDNA has previously been transfected. Cells are cultured in suitable flasks containing culture medium such as DMEM:F-12 supplemented with 10% v/v foetal calf serum, 2 mM L-glutamine, 0.25 mg/ml geneticin, 100 μM flurbiprofen and 10 μg/ml puromycin.
For assay, cells are harvested using a proprietary reagent that dislodges cells such as Versene. Cells are re-suspended in a suitable quantity of fresh culture media for introduction into a 384-well plate. Following incubation for 24 hours at 37° C. the culture media is replaced with a medium containing Fluo-4 and the detergent pluronic acid, and a further incubation takes place. Concentrations of compounds are then added to the plate in order to construct concentration-effect curves. This may be performed on the FLIPR in order to assess the agonist properties of the compounds. Concentrations of PGE2 are then added to the plate in order to assess the antagonist properties of the compounds.
The data so generated may be analysed by means of a computerised curve-fitting routine. The concentration of compound that elicits a half-maximal inhibition of the calcium mobilisation induced by PGE2 (pIC50) may then be estimated.

| Structure (SMILES) | functional pKi |
| --- | --- |
| CC(C)Cc1cn(-c2nc(-c3nc(-c4ccccc4)c[nH]3)cs2)c2cc(Cl)ccc12 [Example 52, 6-Chloro-3-isobutyl-1-[4-(4-phenyl-1H-imidazol-2-yl)-1,3-thiazol-2-yl]-1H-indole] | ≥ 5.5 |
| CC(C)Cc1cn(-c2nc(NC(=O)c3ccc(CO)cc3)cs2)c2cc(Cl)ccc12 [Example 9, N-[2-(6-Chloro-3-isobutyl-1H-indol-1-yl)-1,3-thiazol-4-yl]-4-(hydroxymethyl)benzamide] | ≥ 5.5 |
| COc1ccc(C(=O)Nc2csc(-n3cc(CC(C)C)c4ccc(Cl)cc43)n2)cc1 [Example 7, N-{2-[6-Chloro-3-isobutyl-1H-indol-1-yl]-1,3-thiazol-4-yl}-4-(methyloxy)benzamide] | ≥ 5.5 |
| CC(C)(C)CCc1cn(-c2nc(-c3nc4ccccc4[nH]3)cs2)c2cc(Cl)ccc12.Cl [Example 37, 2-{2-[6-Chloro-3-(3,3-dimethylbutyl)-1H-indol-1-yl]-1,3-thiazol-4-yl}-1H-benzimidazole hydrochloride] | ≥ 5.5 |
| CC(C)Cc1cn(-c2nc(NC(=O)C(C)(C)C)cs2)c2cc(Cl)ccc12 [Example 4, N-{2-[6-Chloro-3-isobutyl-1H-indoi-1-yl]-1,3-thiazol-4-yl}-2,2-dimethylpropanamide] | ≥ 5.5 |
| CCCNC(=O)Nc1csc(-n2cc(CC(C)C)c3ccc(Cl)cc32)n1 [Example 10, N-[2-(6-Chloro-3-isobutyl-1H-indol-1-yl)-1,3-thiazol-4-yl]-N′-propylurea] | ≥ 5.5 |
| CC(C)Cc1cn(-c2nc(-c3nc4cc(CO)ccc4[nH]3)cs2)c2cc(Cl)ccc12.Cl [Example 45, (2-{2-[6-Chloro-3-isobutyl-1H-indol-1-yl]-1,3-thiazol-4-yl}-1H-benzimidazol-5-yl)methanol hydrochloride] | ≥ 5.5 |
| CC(C)Cc1cn(-c2nc(-c3nc4c(CO)cccc4[nH]3)cs2)c2cc(Cl)ccc12 [Example 46, (2-{2-[6-Chloro-3-isobutyl-1H-indol-1-yl]-1,3-thiazol-4-yl}-1H-benzimidazol-4-yl)methanol] | ≥ 5.5 |
| CC(C)Cc1cn(-c2nc(C(=O)Nc3ccc(CO)cc3)cs2)c2cc(Br)ccc12 [Example 12, 2-[6-Bromo-3-isobutyl-1H-indol-1-yl]-N-[4-(hydroxymethyl)phenyl]-1,3-thiazole-4-carboxamide] | ≥ 5.5 |
| CC(C)Cc1cn(-c2nc(-c3nc4cnccc4[nH]3)cs2)c2cc(Cl)ccc12.Cl [Example 43, 2-{2-[6-Chloro-3-isobutyl-1H-indol-1-yl]-1,3-thiazol-4-yl}-1H-imidazo[4,5-c]pyridine hydrochloride] | ≥ 5.5 |
| CC(C)Cc1cn(-c2nc(-c3ncc[nH]3)cs2)c2cc(Cl)ccc12 [Example 47, 6-Chloro-1-[4-(1H-imidazol-2-yl)-1,3-thiazol-2-yl]-3-isobutyl-1H-indole] | ≥ 5.5 |
| CC(C)Cc1cn(-c2nc(-c3nnc[nH]3)cs2)c2cc(Cl)ccc12 [Example 54, 3-[2-(6-Chloro-3-isobutyl-1H-indol-1-yl)-1,3-thiazol-4-yl]-4H-1,2,4-triazole] | ≥ 5.5 |
| CC(C)Cc1cn(-c2nc(-c3nc(CO)c[nH]3)cs2)c2cc(Cl)ccc12 [Example 53, (2-{2-[6-Chloro-3-isobutyl-1H-indol-1-yl]-1,3-thiazol-4-yl}-1H-imidazol-4-yl)methanol] | ≥ 5.5 |
| CC(C)Cc1cn(-c2nc(C(=O)Nc3cccnc3)cs2)c2cc(Cl)ccc12 [Example 22, 2-[6-Chloro-3-isobutyl-1H-indol-1-yl]-N-3-pyridinyl-1,3-thiazole-4-carboxamide] | ≥ 5.5 |
| CC(C)Cc1cn(-c2nc(C(=O)Nc3ccccc3CO)cs2)c2cc(Cl)ccc12 [Example 20, 2-[6-Chloro-3-isobutyl-1H-indol-1-yl]-N-[2-(hydroxymethyl)phenyl]-1,3-thiazole-4-carboxamide] | ≥ 5.5 |
| CC(C)Cc1cn(-c2nc(C(=O)NCCCO)cs2)c2cc(Cl)ccc12 [Example 26, 2-[6-Chloro-3-isobutyl-1H-indol-1-yl]-N-(3-hydroxypropyl)-1,3-thiazole-4-carboxamide] | ≥ 5.5 |
| CC(C)Cc1cn(-c2nc(-c3nc4cc(CN(C)C)ccc4[nH]3)cs2)c2cc(Cl)ccc12 [Example 49, [(2-{2-[6-Chloro-3-isobutyl-1H-indol-1-yl]-1,3-thiazol-4-yl}-1H-benzimidazol-5-yl)methyl]dimethylamine dihydrochloride] | ≥ 5.5 |
| CC(C)Cc1cn(-c2nc(NC(=O)Cc3ccccc3)cs2)c2cc(Cl)ccc12 [Example 1, N-{2-[6-Chloro-3-isobutyl-1H-indol-1-yl]-1,3-thiazol-4-yl}-2-phenylacetamide] | ≥ 5.5 |
| CC(C)Cc1cn(-c2nc(NC(=O)c3ccc(C#N)cc3)cs2)c2cc(Cl)ccc12 [Example 8, N-{2-[6-Chloro-3-isobutyl-1H-indol-1-yl]-1,3-thiazol-4-yl}-4-cyanobenzamide] | ≥ 5.5 |
| CC(C)Cc1cn(-c2nc(-c3nc4ccccc4[nH]3)co2)c2cc(Cl)ccc12.Cl [Example 36, 2-{2-[6-Chloro-3-isobutyl-1H-indol-1-yl]-1,3-oxazol-4-yl}-1H-benzimidazole hydrochloride] | ≥ 5.5 |
| CNCc1ccc2[nH]c(-c3csc(-n4cc(CC(C)C)c5ccc(Cl)cc54)n3)nc2c1 [Example 48, [(2-{2-[6-Chloro-3-isobutyl-1H-indol-1-yl]-1,3-thiazol-4-yl}-1H-benzimidazol-5-yl)methyl]methylamine dihydrochloride] | ≥ 5.5 |
| CC(C)Cc1cn(-c2nc(-c3nc4ccccc4[nH]3)cs2)c2cc(C(F)(F)F)ccc12 [Example 41, 2-{2-[3-Isobutyl-6-(trifluoromethyl)-1H-indol-1-yl]-1,3-thiazol-4-yl}-1H-benzimidazole] | ≥ 5.5 |
| CC(C)Cc1cn(-c2nc(C(=O)Nc3c(F)cccc3F)cs2)c2cc(Cl)ccc12 [Example 33, 2-[6-Chloro-3-isobutyl-1H-indol-1-yl]-N-(2,6-difluorophenyl)-1,3-thiazole-4-carboxamide] | ≥ 5.5 |
| CC(=O)OCc1ccc(C(=O)Nc2csc(-n3cc(CC(C)C)c4ccc(Cl)cc43)n2)cc1 [Example 56, {4-[({2-[6-Chloro-3-(2-methylpropyl)-1H-indol-1-yl]-1,3-thiazol-4-yl}amino)carbonyl]phenyl}methyl acetate] | ≥ 5.5 |
| Cc1nnc(-c2csc(-n3cc(CC(C)C)c4ccc(Cl)cc43)n2)[nH]1 [Example 55, 3-[2-(6-Chloro-3-isobutyl-1H-indol-1-yl)-1,3-thiazol-4-yl]-5-methyl-4H-1,2,4-triazole] | ≥ 5.5 |
| CC(C)Cc1cn(Cc2nc(-c3nc4ccccc4[nH]3)cs2)c2cc(Cl)ccc12.Cl [Example 40, 2-(2-{[6-Chloro-3-isobutyl-1H-indol-1-yl]methyl}-1,3-thiazol-4-yl)-1H-benzimidazole hydrochloride] | ≥ 5.5 |
| CC(C)Cc1cn(-c2nc(C(=O)Nc3ccncc3)cs2)c2cc(Cl)ccc12 [Example 25, 2-[6-Chloro-3-isobutyl-1H-indol-1-yl]-N-4-pyridinyl-1,3-thiazole-4-carboxamide] | ≥ 5.5 |
| CC(C)Cc1cn(-c2nc(C(N)=O)cs2)c2cc(Br)ccc12 [Example 32, 2-[6-Bromo-3-isobutyl-1H-indol-1-yl]-1,3-thiazole-4-carboxamide] | ≥ 5.5 |
| CC(C)(C)CCc1cn(-c2nc(C(N)=O)cs2)c2cc(Cl)ccc12 [Example 31, 2-[6-Chloro-3-(3,3-dimethylbutyl)-1H-indol-1-yl]-1,3-thiazole-4-carboxamide] | ≥ 5.5 |
| CC(C)Cc1cn(-c2nc(NC(=O)c3c(F)cccc3F)cs2)c2cc(Cl)ccc12 [Example 5, N-[2-(6-Chloro-3-isobutyl-1H-indol-1-yl)-1,3-thiazol-4-yl]-2,6-difluorobenzamide] | ≥ 5.5 |
